Reference: article PMC8842666

Target: T1, HA-ASB17 (not stated (human or mouse cDNA cloned)) (UniProt Q8WXJ9)
T1 sequence: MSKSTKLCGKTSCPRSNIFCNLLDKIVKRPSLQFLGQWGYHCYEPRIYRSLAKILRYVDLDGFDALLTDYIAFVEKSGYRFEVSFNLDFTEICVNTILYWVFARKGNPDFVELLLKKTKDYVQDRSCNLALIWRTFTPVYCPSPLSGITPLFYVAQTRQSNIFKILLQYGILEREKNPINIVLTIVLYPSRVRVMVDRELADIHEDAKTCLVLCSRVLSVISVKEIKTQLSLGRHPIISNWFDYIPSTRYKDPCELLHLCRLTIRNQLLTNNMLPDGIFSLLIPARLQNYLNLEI
Experiment: co-IP; HEK293T co-transfected for 24–36 h; RIPA lysis buffer (50 mM Tris–HCl pH 7.4, 150 mM NaCl, 1% NP-40, 1 mM EDTA, 5% glycerol); anti-Flag or anti-HA antibody at 4°C overnight, protein G agarose; washes with 300 mM NaCl; immunoblot

- binding: binds
Substance: ZnF domain of TRAF6 (domain or fragment)

These are yes or no findings as the source states them, for the method shown. In cells and extracts the contact can be indirect. Binding calls can cover weak binding; strength is not graded here. Sequences can lack the tags named with a protein.
